The values that follow come from PMC8141524.

Sequences of proteins named here, by UniProt entry; tags and fusion partners are left off. A change or cut given only in a name is not applied to a line headed by its entry.
UniProt O09106: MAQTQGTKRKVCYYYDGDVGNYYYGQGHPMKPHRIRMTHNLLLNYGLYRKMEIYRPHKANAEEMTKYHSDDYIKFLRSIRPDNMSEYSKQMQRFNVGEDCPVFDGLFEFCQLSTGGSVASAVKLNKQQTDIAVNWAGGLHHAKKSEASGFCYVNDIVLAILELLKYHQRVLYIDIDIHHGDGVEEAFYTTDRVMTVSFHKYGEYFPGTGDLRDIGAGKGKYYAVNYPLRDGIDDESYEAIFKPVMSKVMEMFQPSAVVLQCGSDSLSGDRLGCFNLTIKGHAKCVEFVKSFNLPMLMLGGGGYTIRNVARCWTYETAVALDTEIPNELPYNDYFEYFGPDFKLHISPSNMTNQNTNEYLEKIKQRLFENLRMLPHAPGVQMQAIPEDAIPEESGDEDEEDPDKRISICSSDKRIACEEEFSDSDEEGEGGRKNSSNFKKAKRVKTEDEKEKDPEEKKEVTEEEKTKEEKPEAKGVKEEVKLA
UniProt Q05516: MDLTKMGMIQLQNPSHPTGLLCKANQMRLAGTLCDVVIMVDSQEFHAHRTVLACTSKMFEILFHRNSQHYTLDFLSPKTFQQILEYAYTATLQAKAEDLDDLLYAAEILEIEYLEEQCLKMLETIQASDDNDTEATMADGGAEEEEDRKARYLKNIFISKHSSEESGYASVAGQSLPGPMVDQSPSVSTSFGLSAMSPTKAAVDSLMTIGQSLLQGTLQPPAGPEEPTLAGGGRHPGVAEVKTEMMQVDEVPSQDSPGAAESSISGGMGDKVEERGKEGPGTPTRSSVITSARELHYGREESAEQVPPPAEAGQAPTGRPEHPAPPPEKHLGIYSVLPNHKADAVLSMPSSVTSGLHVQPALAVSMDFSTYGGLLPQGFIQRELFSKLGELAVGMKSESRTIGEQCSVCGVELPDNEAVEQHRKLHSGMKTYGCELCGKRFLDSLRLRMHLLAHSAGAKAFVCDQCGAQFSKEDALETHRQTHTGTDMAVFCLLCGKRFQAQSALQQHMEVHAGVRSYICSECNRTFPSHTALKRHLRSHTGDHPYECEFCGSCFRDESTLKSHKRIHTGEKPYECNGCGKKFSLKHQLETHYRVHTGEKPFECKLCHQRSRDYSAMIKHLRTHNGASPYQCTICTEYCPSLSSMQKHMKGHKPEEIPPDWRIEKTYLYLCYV

Test [1] addresses T1, GST-SMRT(1383-1467), residues 1383-1467 of mouse SMRT (mouse) (UniProt Q9WU42).
T1 sequence: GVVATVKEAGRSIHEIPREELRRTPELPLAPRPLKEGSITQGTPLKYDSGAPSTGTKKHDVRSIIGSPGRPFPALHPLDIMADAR
Put plainly: pull-down; 200 nM His6-tagged BTB domain with equimolar GST-tagged protein, 50 mM HEPES pH 8.0, 150 mM NaCl, 0.1% IGEPAL-CA630, 2 mM EDTA, 4 °C; glutathione sepharose 4B; immunoblot anti-His; both purified.

Test [2] has as its target GST-tagged mouse HDAC1 (mouse) (UniProt O09106). The test is described as above.

Results are given in words; binding and its absence hold for the method and conditions named. Binding can be weak; no strength is given. For some assays here: Where a sequence is shown, tags or fusion partners need not be part of it.

“His6-tagged BTB domain of PLZF (from UniProt Q05516) (domain or fragment)”: the binding entry in test [1] and in test [2] was “binds” in each case.
